Values from PubChem BioAssay AID1224829 (NIAID, 2016)
Assay: 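Follow-up of TLR4-NF-kappaB regulators using six separate siRNAs for each gene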 (follow-up of hits). Cells: mouse RAW264.7 G9 macrophage reporter cells. Knock-down reagent: single siRNA against mouse genes, 100 nM. Timing: 2 days of siRNA knock-down, then 40 min of LPS before fixing. Challenge: LPS (Salmonella minnesota R595) at 10 ng/ml. Detection: 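High-content images after 40 min LPS exposure; GFP-p65 nucleus to surrounding ring signal ratio, normalised to plate median and non-targeting control wells, expressed as z-score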. Direction: p65 translocation z-score and gene median z-score, per vendor: higher = more nuclear NF-kappaB p65 after LPS. Rule for the call: 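Active means the replicate-mean z-score lies beyond plus or minus 2, in either direction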. Calls: active = changed p65 translocation (either direction); inactive = no clear change.
Here is a random part of about 3,800 reagents tested. 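Calls cover raised and lowered translocation; gene median uses one vendor's three siRNAs; qiagen siRNAs acted more weakly than ambion siRNAs.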 The numbers tell different reagents against one gene apart.

gene,siRNA no.,siRNA vendor or control pool,"p65 translocation z-score, replicate mean","p65 translocation z-score, replicate 1","p65 translocation z-score, replicate 2","gene median z-score, per vendor",activity call
2810032G03Rik,1,ambion single siRNA,-0.898,-1.02,-0.776,-1.02,inactive
2810032G03Rik,2,ambion single siRNA,-3.26,-3.05,-3.47,-1.02,active
2810032G03Rik,3,ambion single siRNA,0.237,0.237,,-1.02,inactive
2810032G03Rik,4,qiagen single siRNA,0.51,0.54,0.48,0.47,inactive
2810032G03Rik,5,qiagen single siRNA,-4.23,-4.23,,0.47,active
2810032G03Rik,6,qiagen single siRNA,-0.295,-1.06,0.47,0.47,inactive
Grpel2,1,ambion single siRNA,0.467,0.375,0.559,0.242,inactive
Grpel2,2,ambion single siRNA,0.242,0.207,0.277,0.242,inactive
Grpel2,3,ambion single siRNA,-1.33,-1.69,-0.956,0.242,inactive
Grpel2,4,qiagen single siRNA,1.34,0.494,2.19,1.49,inactive
Grpel2,5,qiagen single siRNA,0.999,-0.148,2.15,1.49,inactive
Grpel2,6,qiagen single siRNA,1.49,1.18,1.81,1.49,inactive
Syn2,1,ambion single siRNA,2.59,3.63,1.55,1.58,active
Syn2,2,ambion single siRNA,1.28,3.53,-0.977,1.58,inactive
Syn2,3,ambion single siRNA,0.772,1.62,-0.0708,1.58,inactive
Syn2,4,qiagen single siRNA,3.77,4.11,3.42,1.78,active
Syn2,5,qiagen single siRNA,-3.24,-3.24,,1.78,active
Syn2,6,qiagen single siRNA,1.3,0.815,1.78,1.78,inactive
Cat,1,ambion single siRNA,-3.09,-2.59,-3.58,-2.59,active
Cat,2,ambion single siRNA,-2.21,-2.86,-1.57,-2.59,active
Cat,3,ambion single siRNA,-1.65,-1.65,,-2.59,inactive
Cat,4,qiagen single siRNA,0.652,0.652,,1.03,inactive
Cat,5,qiagen single siRNA,1.55,1.03,2.08,1.03,inactive
Cat,6,qiagen single siRNA,0.723,0.264,1.18,1.03,inactive
Alyref,1,ambion single siRNA,-2.25,-1.73,-2.78,-2.82,active
Alyref,2,ambion single siRNA,-2.05,-1.24,-2.86,-2.82,active
Alyref,3,ambion single siRNA,-4.86,-4.79,-4.94,-2.82,active
Alyref,4,qiagen single siRNA,2.13,0.882,3.37,-1.07,active
Alyref,5,qiagen single siRNA,-2.64,-2.75,-2.53,-1.07,active
Alyref,6,qiagen single siRNA,-1.07,-1.54,-0.605,-1.07,inactive
Adam10,1,ambion single siRNA,1.3,2.31,0.295,-0.109,inactive
Adam10,2,ambion single siRNA,-0.802,-0.115,-1.49,-0.109,inactive
Adam10,3,ambion single siRNA,-0.946,-1.79,-0.104,-0.109,inactive
Adam10,4,qiagen single siRNA,-1.05,-1.73,-0.375,-1.4,inactive
Adam10,5,qiagen single siRNA,-0.726,-1.31,-0.141,-1.4,inactive
Adam10,6,qiagen single siRNA,-1.61,-1.73,-1.49,-1.4,inactive
Ndor1,1,ambion single siRNA,-2.45,-1.32,-3.57,-2.6,active
Ndor1,2,ambion single siRNA,-5.41,-5.88,-4.93,-2.6,active
Ndor1,3,ambion single siRNA,-1.31,-0.998,-1.63,-2.6,inactive
Ndor1,4,qiagen single siRNA,1.9,1.58,2.23,2.37,inactive
Ndor1,5,qiagen single siRNA,3.43,2.51,4.36,2.37,active
Ndor1,6,qiagen single siRNA,2,0.271,3.73,2.37,inactive
6030452D12Rik,1,ambion single siRNA,-0.151,-0.355,0.0521,-1.68,inactive
6030452D12Rik,2,ambion single siRNA,-3.75,-4.88,-2.61,-1.68,active
6030452D12Rik,3,ambion single siRNA,-2.22,-0.741,-3.71,-1.68,active
6030452D12Rik,4,qiagen single siRNA,3.18,3.11,3.26,3.11,active
6030452D12Rik,5,qiagen single siRNA,3.28,2.06,4.51,3.11,active
6030452D12Rik,6,qiagen single siRNA,2.13,2.13,,3.11,active
Thbs2,1,ambion single siRNA,-1.17,-1.29,-1.05,-2.86,inactive
Thbs2,2,ambion single siRNA,-7.34,-8.22,-6.47,-2.86,active
Thbs2,3,ambion single siRNA,-2.86,-1.48,-4.24,-2.86,active
Thbs2,4,qiagen single siRNA,3.58,3.2,3.95,1.63,active
Thbs2,5,qiagen single siRNA,1.63,0.468,2.79,1.63,inactive
Thbs2,6,qiagen single siRNA,-2.63,-1.76,-3.5,1.63,active
Ubqln2,1,ambion single siRNA,-3.1,-3.94,-2.27,-1.94,active
Ubqln2,2,ambion single siRNA,-1.39,-0.294,-2.5,-1.94,inactive
Ubqln2,3,ambion single siRNA,-1.55,-1.48,-1.61,-1.94,inactive
Ubqln2,4,qiagen single siRNA,1.29,1.25,1.33,-1.57,inactive
Ubqln2,5,qiagen single siRNA,-4.4,-4.4,,-1.57,active
Ubqln2,6,qiagen single siRNA,-4.38,-4.38,,-1.57,active
Zkscan14,1,ambion single siRNA,-0.423,-0.401,-0.444,-0.5,inactive
Zkscan14,2,ambion single siRNA,-1.21,-0.555,-1.86,-0.5,inactive
Zkscan14,3,ambion single siRNA,-0.292,-0.876,0.292,-0.5,inactive
Zkscan14,4,qiagen single siRNA,-0.738,-2.37,0.895,0.829,inactive
Zkscan14,5,qiagen single siRNA,0.374,0.763,-0.0156,0.829,inactive
Zkscan14,6,qiagen single siRNA,3.39,1.14,5.65,0.829,active
